The results in this text go back to publication doi:10.1101/2021.06.18.448975.

For this experiment, the target named is GFP-myosin VI short full-length. The experiment can be described thus: proximity ligation.

These are yes or no findings as the source states them, for the method shown. In cells and extracts the contact can be indirect. Binding calls can cover weak binding; strength is not graded here.

B1: oral-facial-digital syndrome 1 (OFD1) protein (endogenous) (protein, UniProt O75665 1-1012)
chain: MMAQSNMFTVADVLSQDELRKKLYQTFKDRGILDTLKTQLRNQLIHELMHPVLSGELQPRSISVEGSSLLIGASNSLVADHLQRCGYEYSLSVFFPESGLAKEKVFTMQDLLQLIKINPTSSLYKSLVSGSDKENQKGFLMHFLKELAEYHQAKESCNMETQTSSTFNRDSLAEKLQLIDDQFADAYPQRIKFESLEIKLNEYKREIEEQLRAEMCQKLKFFKDTEIAKIKMEAKKKYEKELTMFQNDFEKACQAKSEALVLREKSTLERIHKHQEIETKEIYAQRQLLLKDMDLLRGREAELKQRVEAFELNQKLQEEKHKSITEALRRQEQNIKSFEETYDRKLKNELLKYQLELKDDYIIRTNRLIEDERKNKEKAVHLQEELIAINSKKEELNQSVNRVKELELELESVKAQSLAITKQNHMLNEKVKEMSDYSLLKEEKLELLAQNKLLKQQLEESRNENLRLLNRLAQPAPELAVFQKELRKAEKAIVVEHEEFESCRQALHKQLQDEIEHSAQLKAQILGYKASVKSLTTQVADLKLQLKQTQTALENEVYCNPKQSVIDRSVNGLINGNVVPCNGEISGDFLNNPFKQENVLARMVASRITNYPTAWVEGSSPDSDLEFVANTKARVKELQQEAERLEKAFRSYHRRVIKNSAKSPLAAKSPPSLHLLEAFKNITSSSPERHIFGEDRVVSEQPQVGTLEERNDVVEALTGSAASRLRGGTSSRRLSSTPLPKAKRSLESEMYLEGLGRSHIASPSPCPDRMPLPSPTESRHSLSIPPVSSPPEQKVGLYRRQTELQDKSEFSDVDKLAFKDNEEFESSFESAGNMPRQLEMGGLSPAGDMSHVDAAAAAVPLSYQHPSVDQKQIEEQKEEEKIREQQVKERRQREERRQSNLQEVLERERRELEKLYQERKMIEESLKIKIKKELEMENELEMSNQEIKDKSAHSENPLEKYMKIIQQEQDQESADKSSKKMVQEGSLVDTLQSSDKVESLTGFSHEELDDSW
Turning to B1, the binding entry is “binds”.
